Results reported in the supplement of paper PMC10849652.
The list shows a part of the results.

The chains behind the UniProt entries cited, without tags or fusion partners. Where a name states a change or a piece, a line headed by the entry shows the natural chain unless it says otherwise.
UniProt Q8NI36: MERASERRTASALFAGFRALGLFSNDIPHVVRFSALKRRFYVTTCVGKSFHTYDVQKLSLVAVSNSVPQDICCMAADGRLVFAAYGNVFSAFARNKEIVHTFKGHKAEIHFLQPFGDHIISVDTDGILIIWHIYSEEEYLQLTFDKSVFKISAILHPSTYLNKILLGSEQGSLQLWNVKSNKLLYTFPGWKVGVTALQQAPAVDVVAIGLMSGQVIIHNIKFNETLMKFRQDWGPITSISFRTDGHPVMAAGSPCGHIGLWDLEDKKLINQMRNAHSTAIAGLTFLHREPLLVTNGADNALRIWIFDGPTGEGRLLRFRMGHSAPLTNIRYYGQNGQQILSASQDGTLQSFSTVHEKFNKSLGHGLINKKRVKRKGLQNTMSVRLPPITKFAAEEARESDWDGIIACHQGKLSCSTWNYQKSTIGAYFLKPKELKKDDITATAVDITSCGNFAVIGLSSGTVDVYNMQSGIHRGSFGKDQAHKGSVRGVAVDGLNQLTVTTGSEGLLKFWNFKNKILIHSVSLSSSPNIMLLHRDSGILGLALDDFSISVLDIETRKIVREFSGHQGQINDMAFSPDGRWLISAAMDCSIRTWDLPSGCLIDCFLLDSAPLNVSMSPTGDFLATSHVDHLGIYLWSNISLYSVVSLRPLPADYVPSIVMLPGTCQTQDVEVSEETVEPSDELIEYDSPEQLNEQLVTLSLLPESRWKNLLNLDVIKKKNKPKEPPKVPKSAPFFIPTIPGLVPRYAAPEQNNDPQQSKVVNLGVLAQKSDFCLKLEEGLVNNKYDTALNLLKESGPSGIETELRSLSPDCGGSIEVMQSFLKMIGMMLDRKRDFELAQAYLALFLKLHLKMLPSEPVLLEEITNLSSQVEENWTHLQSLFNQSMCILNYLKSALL
UniProt Q86VN1: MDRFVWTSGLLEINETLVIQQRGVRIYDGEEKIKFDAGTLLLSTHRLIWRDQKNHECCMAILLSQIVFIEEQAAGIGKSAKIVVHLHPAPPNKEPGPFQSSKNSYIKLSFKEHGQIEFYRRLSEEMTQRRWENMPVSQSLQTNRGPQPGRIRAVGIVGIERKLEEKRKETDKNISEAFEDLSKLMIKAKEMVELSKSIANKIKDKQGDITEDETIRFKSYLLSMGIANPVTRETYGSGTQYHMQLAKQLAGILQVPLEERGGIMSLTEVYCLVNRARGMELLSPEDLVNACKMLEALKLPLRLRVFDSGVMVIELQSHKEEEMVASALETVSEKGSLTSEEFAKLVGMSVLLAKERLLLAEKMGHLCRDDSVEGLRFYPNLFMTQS
UniProt Q9NW82: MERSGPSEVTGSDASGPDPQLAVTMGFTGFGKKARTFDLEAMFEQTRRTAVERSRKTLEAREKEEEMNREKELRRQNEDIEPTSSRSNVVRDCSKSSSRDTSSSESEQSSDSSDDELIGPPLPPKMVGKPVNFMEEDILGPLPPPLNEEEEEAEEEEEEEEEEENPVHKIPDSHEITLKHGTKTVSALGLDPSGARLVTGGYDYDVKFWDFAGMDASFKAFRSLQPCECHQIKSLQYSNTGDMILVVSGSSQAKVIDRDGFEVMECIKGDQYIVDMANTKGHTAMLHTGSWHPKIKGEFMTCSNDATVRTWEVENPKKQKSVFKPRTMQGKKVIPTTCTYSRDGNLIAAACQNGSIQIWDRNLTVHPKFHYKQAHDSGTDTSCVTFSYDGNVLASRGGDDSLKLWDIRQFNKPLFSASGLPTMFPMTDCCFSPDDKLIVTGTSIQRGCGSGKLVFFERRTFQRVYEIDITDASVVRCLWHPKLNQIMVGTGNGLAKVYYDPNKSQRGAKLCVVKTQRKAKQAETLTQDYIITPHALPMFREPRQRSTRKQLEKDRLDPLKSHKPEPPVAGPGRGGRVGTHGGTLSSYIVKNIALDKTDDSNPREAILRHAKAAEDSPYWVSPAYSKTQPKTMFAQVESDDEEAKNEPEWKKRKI
UniProt Q9Y2W2: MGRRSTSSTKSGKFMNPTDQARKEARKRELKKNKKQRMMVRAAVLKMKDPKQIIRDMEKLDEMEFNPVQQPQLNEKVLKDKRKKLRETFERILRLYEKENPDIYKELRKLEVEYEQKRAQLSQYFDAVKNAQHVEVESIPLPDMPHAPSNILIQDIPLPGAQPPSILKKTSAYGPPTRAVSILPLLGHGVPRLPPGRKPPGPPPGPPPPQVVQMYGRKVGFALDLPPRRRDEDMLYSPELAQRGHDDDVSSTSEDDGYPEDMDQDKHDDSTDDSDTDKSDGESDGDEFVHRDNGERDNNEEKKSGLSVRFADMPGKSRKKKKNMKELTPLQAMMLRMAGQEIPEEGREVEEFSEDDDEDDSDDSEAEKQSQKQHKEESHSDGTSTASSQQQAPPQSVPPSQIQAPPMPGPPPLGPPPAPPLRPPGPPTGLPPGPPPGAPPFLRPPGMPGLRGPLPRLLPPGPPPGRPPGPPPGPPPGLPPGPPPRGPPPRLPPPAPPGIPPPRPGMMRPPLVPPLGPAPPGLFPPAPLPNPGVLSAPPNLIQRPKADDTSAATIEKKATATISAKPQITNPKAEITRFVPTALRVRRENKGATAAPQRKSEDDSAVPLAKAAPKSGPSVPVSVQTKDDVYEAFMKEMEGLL
UniProt Q9NRW7: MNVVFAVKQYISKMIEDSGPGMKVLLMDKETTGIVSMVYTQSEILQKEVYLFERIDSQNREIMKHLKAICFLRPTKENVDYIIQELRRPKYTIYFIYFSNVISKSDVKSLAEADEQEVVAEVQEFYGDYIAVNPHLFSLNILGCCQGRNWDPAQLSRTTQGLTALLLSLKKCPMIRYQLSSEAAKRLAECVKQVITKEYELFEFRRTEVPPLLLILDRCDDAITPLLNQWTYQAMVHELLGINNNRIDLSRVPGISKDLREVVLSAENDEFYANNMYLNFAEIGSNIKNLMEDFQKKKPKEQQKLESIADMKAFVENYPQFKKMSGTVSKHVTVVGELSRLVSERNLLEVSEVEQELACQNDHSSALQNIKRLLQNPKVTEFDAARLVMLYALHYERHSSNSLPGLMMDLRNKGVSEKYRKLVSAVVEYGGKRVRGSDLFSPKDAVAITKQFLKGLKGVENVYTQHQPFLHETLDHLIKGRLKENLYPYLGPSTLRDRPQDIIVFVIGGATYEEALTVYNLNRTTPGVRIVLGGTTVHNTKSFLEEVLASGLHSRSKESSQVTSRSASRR
UniProt Q6UXN9, whole entry, looked up: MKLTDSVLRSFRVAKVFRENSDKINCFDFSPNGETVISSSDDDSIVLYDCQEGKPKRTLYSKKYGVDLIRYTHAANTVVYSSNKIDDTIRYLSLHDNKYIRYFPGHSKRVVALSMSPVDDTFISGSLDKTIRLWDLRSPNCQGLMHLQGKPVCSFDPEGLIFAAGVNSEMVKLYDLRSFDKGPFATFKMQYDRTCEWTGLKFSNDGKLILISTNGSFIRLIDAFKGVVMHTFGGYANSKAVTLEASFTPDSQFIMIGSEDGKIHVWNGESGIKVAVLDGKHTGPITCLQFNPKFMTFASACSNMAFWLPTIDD
UniProt Q8IWB7: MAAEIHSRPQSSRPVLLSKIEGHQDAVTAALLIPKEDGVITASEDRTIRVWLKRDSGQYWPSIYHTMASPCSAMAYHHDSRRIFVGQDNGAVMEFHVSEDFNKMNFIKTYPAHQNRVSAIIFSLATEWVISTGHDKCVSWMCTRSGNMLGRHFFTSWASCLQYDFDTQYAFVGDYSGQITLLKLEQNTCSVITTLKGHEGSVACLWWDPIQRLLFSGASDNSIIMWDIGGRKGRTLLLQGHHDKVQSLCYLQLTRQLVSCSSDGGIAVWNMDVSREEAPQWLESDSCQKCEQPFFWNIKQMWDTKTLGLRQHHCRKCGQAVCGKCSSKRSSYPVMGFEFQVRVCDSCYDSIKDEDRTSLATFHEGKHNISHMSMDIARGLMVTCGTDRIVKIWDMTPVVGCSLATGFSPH
UniProt Q9H9H4: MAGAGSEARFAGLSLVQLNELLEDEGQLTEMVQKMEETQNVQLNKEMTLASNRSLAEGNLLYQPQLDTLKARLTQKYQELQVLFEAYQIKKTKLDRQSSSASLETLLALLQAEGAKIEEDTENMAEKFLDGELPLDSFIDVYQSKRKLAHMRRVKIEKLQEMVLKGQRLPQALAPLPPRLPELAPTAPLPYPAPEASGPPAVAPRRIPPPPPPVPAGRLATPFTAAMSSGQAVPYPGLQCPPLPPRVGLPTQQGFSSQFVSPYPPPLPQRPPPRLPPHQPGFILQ
UniProt Q8N2E2: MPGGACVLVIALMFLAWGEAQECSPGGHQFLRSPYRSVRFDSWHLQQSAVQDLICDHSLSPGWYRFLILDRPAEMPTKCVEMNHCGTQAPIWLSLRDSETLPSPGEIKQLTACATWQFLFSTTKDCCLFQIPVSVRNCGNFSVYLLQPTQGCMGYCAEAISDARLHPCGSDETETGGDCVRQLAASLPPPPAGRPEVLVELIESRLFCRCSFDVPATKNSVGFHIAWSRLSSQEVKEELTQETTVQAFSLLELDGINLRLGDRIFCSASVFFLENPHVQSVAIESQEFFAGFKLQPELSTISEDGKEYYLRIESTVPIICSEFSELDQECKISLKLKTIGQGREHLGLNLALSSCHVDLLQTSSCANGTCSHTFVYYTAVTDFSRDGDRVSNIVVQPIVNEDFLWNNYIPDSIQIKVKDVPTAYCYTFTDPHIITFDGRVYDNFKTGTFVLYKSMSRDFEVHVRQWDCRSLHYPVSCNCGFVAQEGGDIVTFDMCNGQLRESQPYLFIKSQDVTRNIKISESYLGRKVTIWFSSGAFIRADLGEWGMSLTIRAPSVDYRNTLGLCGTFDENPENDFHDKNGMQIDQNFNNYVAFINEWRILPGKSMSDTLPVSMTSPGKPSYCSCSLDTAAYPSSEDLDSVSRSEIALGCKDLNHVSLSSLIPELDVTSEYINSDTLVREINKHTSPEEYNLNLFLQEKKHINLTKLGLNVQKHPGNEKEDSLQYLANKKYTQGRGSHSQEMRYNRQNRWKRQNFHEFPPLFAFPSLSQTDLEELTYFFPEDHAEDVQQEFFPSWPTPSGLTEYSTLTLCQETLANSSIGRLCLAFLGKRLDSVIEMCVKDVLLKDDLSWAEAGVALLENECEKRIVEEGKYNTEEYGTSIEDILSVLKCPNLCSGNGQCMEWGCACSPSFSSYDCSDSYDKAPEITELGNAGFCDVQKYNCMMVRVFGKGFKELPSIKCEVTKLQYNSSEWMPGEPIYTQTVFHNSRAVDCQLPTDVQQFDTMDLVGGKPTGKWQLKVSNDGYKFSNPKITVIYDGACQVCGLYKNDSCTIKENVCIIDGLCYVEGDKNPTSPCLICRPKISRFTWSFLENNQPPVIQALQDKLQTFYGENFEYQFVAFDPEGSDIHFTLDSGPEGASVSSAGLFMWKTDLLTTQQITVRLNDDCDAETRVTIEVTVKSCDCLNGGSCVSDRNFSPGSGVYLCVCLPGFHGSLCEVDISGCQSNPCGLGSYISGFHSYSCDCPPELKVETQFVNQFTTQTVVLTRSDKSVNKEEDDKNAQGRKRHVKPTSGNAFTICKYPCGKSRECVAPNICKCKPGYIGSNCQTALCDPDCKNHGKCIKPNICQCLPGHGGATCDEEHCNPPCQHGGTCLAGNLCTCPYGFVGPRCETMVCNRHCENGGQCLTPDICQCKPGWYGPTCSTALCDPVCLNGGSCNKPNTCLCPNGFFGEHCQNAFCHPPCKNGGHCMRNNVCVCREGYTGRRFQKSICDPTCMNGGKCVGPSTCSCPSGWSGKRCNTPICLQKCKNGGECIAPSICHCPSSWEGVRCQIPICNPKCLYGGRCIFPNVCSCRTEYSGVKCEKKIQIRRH
UniProt O00401, whole entry, looked up: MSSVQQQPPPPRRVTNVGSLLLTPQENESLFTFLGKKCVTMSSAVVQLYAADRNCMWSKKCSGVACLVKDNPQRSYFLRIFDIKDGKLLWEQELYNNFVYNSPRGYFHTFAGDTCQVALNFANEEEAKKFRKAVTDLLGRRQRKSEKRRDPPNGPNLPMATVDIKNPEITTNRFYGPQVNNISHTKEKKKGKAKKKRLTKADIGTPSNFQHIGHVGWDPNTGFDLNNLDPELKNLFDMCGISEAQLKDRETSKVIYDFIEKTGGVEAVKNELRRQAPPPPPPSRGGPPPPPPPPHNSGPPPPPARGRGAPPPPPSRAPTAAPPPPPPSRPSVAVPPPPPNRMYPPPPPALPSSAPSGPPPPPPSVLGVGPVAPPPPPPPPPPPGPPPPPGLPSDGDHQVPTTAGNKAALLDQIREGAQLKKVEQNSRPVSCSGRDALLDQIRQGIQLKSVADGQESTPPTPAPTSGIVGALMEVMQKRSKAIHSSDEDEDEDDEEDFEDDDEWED

compound: C#Cc1cccc(Nc2ncnc3cc(OCCOC)c(OCCOC)cc23)c1 [erlotinib]; assay: log2 fold change, soluble protein after heating vs DMSO (PISA); higher = thermal stabilisation; K562 cells, 10 uM, 30 min; active = over 0.2 and 3.5 SD of the protein, either way, in both replicates (recomputed)
Procedure, shortened: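 Aliquots of K562 cells (2×10^6 cells/mL) treated with 10 μM compound for 30 min were heated for 3 min over 48°C-58°C. After pooling and extraction in PBS with 0.5% NP-40 at 4°C, soluble protein from a 21,000xg, 90 min spin was quantified by TMTpro 16plex LC-MS/MS with channel sums equalised. Thermal stability is expressed against control samples, from duplicates, as a log2 fold change.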

log2 fold change, inactive:
WDR5 (UniProt P61964) -0.096
WDR6 (UniProt Q9NNW5) 0.008
WDR13 (UniProt Q9H1Z4) 0.014
VPS4B (UniProt O75351) -0.012
WDR74 (UniProt Q6RFH5) -0.067
WDR36 (UniProt Q8NI36) -0.001
VPS13C (UniProt Q709C8) 0.015
WIPF2 (UniProt Q8TF74) 0.043
VPS36 (UniProt Q86VN1) 0.033
WDR70 (UniProt Q9NW82) -0.013
VPS26A (UniProt O75436) -0.033
VPS29 isoform 2 (UniProt Q9UBQ0) 0.014
WBP11 (UniProt Q9Y2W2) -0.008
WDR26, A0A499FIZ0 -0.09
VPS45 (UniProt Q9NRW7) 0.038
WDR82 (UniProt Q6UXN9) -0.064
WDFY1 (UniProt Q8IWB7) 0.006
VPS37B (UniProt Q9H9H4) 0.01
VWDE (UniProt Q8N2E2) -0.001
VWA5A (UniProt O00534) 0.066
VPS13A (UniProt Q96RL7) 0.025
WASL (UniProt O00401) 0.094
WDR73 (UniProt Q6P4I2) 0.027
WASHC4 (UniProt Q2M389) -0.076

Retrieved one by one from the entries so far, 2 records:
log2 fold change, inactive:
VWDE (UniProt Q8N2E2) -0.001
VWA5A (UniProt O00534) 0.066
